The results in this text go back to PubChem BioAssay AID2685 (National Center for Advancing Translational Sciences (NCATS), 2010).

This is one part of the list. These are further read-outs of the screen, such as a control signal, another cell line or another target. No call is given for them. The list favours compounds with an active or inconclusive main result. The note in brackets gives the kind of curve behind each potency; many fits are weak.

This assay in a line: qHTS Assay for Lipid Storage Modulators in Drosophila S3 Cells.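 For cell number change: cells counted by Cell Tracker Red CMTPX staining in the red channel.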 The conditions noted are these: BODIPY lipid droplet fluorescence, 18-24 h; for cell number change: measured here: cell count max response, cells fed with added oleic acid. The essentials:
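Drosophila S3 cells got compounds at several concentrations plus oleic acid (400 uM solution). Laser-scanning cytometry with 488 nm excitation read lipid droplets at 500-530 nm and cells at 575-640 nm. Percent activity was relative to 20 uM Triacsin C.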
On the technique in general: Quantitative high-throughput screening tests each substance at several concentrations.

The mark [1] stands for this setting: measured here: lipid fluorescence (Fed channel) AC50, cells fed with added oleic acid.
[2] abbreviates: measured here: cell number channel AC50, cells fed with added oleic acid.

Broadly, the AC50 is the midpoint of the concentration-response curve, whichever way the signal moves. In the case of `CS(=O)(=O)N(CC(=O)Nc1ccccc1)c1cccc(Cl)c1Cl`, the cell number change is -24.6%. Besides, the half-maximal activity concentration (AC50) under setting [1] was 16.4 µM [falling, single point].
With `COc1ccc(/C=N/n2cnnc2)cc1Cn1nc(C)c([N+](=O)[O-])c1C`, the cell number change came to 15.6%. Also, the AC50 under setting [2] was 0.731 µM [falling, full curve]. Moreover, the AC50 under setting [1] is 0.731 µM [falling, full curve].
Regarding `COc1cccc(C=Nc2ccccc2C(=O)Nc2ccccc2)c1O`, the cell number change was found to be 2.43%.
With `CC1CCN(c2ccc([N+](=O)[O-])c(SCCO)c2)CC1`, the cell number change stood at 17.2%. Moreover, the AC50 under setting [1] was 0.58 µM [rising, single point].
Consider `CC(C)CN1C(=O)/C(=C/c2cccs2)NC1=S`, for which the cell number change was -42.2%. In addition, the concentration at half-maximal activity (AC50) under setting [2] is 11.6 µM [falling, partial curve]. In addition, the AC50 under setting [1] is 11.6 µM [falling, partial curve].
`Fc1ccc(-c2n[nH]c(=S)n2-c2ccc3c(c2)OCCO3)cc1`: the cell number change was 4.41%. The AC50 under setting [1] is 7.31 µM [falling, single point].
Regarding `COc1ccc(NC(=O)C2CCN(C(=O)Cc3ccccc3)CC2)cc1OC`, the AC50 under setting [1] was 3.26 µM [rising, single point].
In the case of `COC(=O)CSCC(=O)Nc1cc2c(cc1C(C)=O)OCO2`, the cell number change was -16.4%.
For `COCCOC(=O)/C=C1/NC(=O)CS1`, the cell number change is -69.9%. Moreover, the AC50 under setting [2] was 25.9 µM [falling, partial curve]. Moreover, the AC50 under setting [1] is 25.9 µM [falling, partial curve].
On to `COc1ccc(C2/C=C\CN(C(=O)C3CCCC3)[C@H](Cc3ccccc3)C(=O)N2Cc2ccc(F)cc2)cc1` (some centres undefined), for which the cell number change is -21.4%. Under setting [1], the AC50 was 29.1 µM [falling, single point].
Turning to `CC(C)CN(C(=O)CN1CCc2ccccc21)c1c(N)n(CC(C)C)c(=O)[nH]c1=O`, the cell number change was 61.5%. Besides, under setting [2], the AC50 is 29.1 µM [rising, single point]. In addition, the AC50 under setting [1] was 18.4 µM [rising, single point].
Regarding `Cc1cccc(OCC(=O)NC2CCCC2)c1`, the cell number change worked out at 7.92%.
In the case of `CN(CC(=O)Nc1cccc(F)c1)C(=O)c1cc(S(=O)(=O)N2CCN(c3ccccc3)CC2)ccc1Cl`, the cell number change stood at 6.95%. Moreover, the half-maximal activity concentration (AC50) under setting [1] is 9.2 µM [falling, partial curve].
With `CCC(C)c1ccccc1N1CC(C(=O)N(C)CC(=O)Nc2cccc(F)c2)CC1=O` (centres undefined), the cell number change is -28%. The AC50 under setting [1] was 29.1 µM [falling, single point].
`CCOC(=O)Cc1csc(NC(=O)Cn2c(=O)oc3ccccc32)n1`: the AC50 reads like this: under setting [2], 2.31 µM [rising, partial curve]; under setting [1], 2.06 µM [rising, partial curve].
Consider `COc1cc(/C=C/C(=O)OCC(=O)NCC(=O)Nc2cccc(C)c2C)ccc1OC(F)F`, for which the cell number change was found to be 34.1%. Moreover, the concentration at half-maximal activity (AC50) under setting [2] was 29.1 µM [rising, single point].
`CCCCCCCCOC(=O)c1c(CSC(=N)N)n(C)c2cc(Br)c(OC(C)=O)cc12`: the cell number change is -71.6%. Also, the concentration at half-maximal activity (AC50) under setting [2] is 18.4 µM [falling, partial curve]. Under setting [1], the AC50 is 23.1 µM [falling, partial curve].
In the case of `COc1ccc(/C=C/C(=O)N(C)C2CCS(=O)(=O)C2)cc1` (centres undefined), the cell number change is -5.23%.
On to `COc1cccc(N2CC(NS(=O)(=O)c3ccc(Cl)cc3)CC2=O)c1` (centres undefined), for which the cell number change came out at 29%. In addition, the half-maximal activity concentration (AC50) under setting [1] is 23.1 µM [rising, single point].
With `Cn1c2ccccc2c2c(C(=O)N3CCN(c4ccc(F)cc4)CC3)cn(C3CCCC3)c(=O)c21`, the cell number change was -32%. Moreover, under setting [2], the AC50 was 6.51 µM [falling, partial curve]. For the same compound, under setting [1], the concentration at half-maximal activity (AC50) is 0.517 µM [rising, partial curve].
Take `CSc1sccc1/C=C(/C#N)C(=O)c1ccco1`: the cell number change worked out at 111%. Moreover, the AC50 under setting [2] was 3.66 µM [rising, full curve, poor fit]. Also, the AC50 under setting [1] is 6.51 µM [rising, partial curve, poor fit].
Regarding `CN1CCCN(C(=O)c2cc(-c3ccc(Cl)c(Cl)c3Cl)nc3ccccc23)CC1`, the half-maximal activity concentration (AC50) was 0.92 µM [rising, single point] under setting [2] and 0.00517 µM [rising, full curve, poor fit] under setting [1].
Consider `CC(=O)c1cc(-c2ccccc2)n(CCC(=O)NCc2cccs2)c1C`, for which the half-maximal activity concentration (AC50) was 6.51 µM [rising, single point] under setting [2] and 6.51 µM [rising, single point] under setting [1].
For `O=[N+]([O-])c1cc([N+](=O)[O-])c(Oc2ccc(Br)cc2Br)cc1NN1CCCCC1`, the cell number change is -2.27%.
On to `CSCCC(NC(=O)c1ccc(C)o1)C(=O)O` (centres undefined), for which the cell number change was -0.404%. Moreover, the concentration at half-maximal activity (AC50) under setting [1] was 6.51 µM [rising, partial curve].
Consider `Cc1c(Cl)cccc1NC(=O)Nc1cccnc1`, for which the cell number change is -9.9%. Further, the half-maximal activity concentration (AC50) under setting [1] is 29.1 µM [rising, single point].
As for `Cc1cc(C)cc(NC(=S)N2CCC(NC(=O)C3CC3)CC2)c1`, the cell number change was 16.9%. The AC50 under setting [1] was 0.517 µM [rising, full curve].
Take `Cc1ccc(O)c(CP(=O)(c2ccccc2)c2ccccc2)c1`: the cell number change is 72.8%. The concentration at half-maximal activity (AC50) under setting [2] is 6.51 µM [rising, partial curve]. The half-maximal activity concentration (AC50) under setting [1] was 11.6 µM [rising, partial curve].
Regarding `CC(C)c1nnc(NC(=O)CCS(=O)(=O)c2nc(-c3cccs3)cc(C(F)(F)F)n2)s1`, the cell number change is -92.7%. Moreover, the AC50 under setting [2] is 8.2 µM [falling, partial curve]. Also, the AC50 under setting [1] is 7.31 µM [falling, partial curve].
Consider `CC1=C(C(=O)N2CCOCC2)C(c2ccsc2)C2=C(CCCC2=O)N1` (centres undefined), for which the cell number change was -3.58%. The half-maximal activity concentration (AC50) under setting [1] was 0.517 µM [falling, full curve].
As for `COc1ccc(/C=C2\CC/C(=C\c3ccc(OC)c(OC)c3)C2=O)cc1OC`, the cell number change is -7.91%.
On to `COc1ccccc1NC(=O)C1CCN(C(=O)C2CC(=O)N(c3ccc(C)cc3)C2)CC1` (centres undefined), for which the cell number change was 24.4%. In addition, under setting [1], the half-maximal activity concentration (AC50) is 29.1 µM [rising, single point].
For `O=C(O)c1ccc(C2Nc3ccccc3C(=O)N2Cc2ccccc2)cc1` (centres undefined), the cell number change was -4.27%.
In the case of `COc1ccccc1NC(=O)CCN1C(=O)/C(=C\c2cc(OC)c(OC)c(OC)c2)SC1=S`, the cell number change was -21%. Besides, the AC50 under setting [2] was 2.06 µM [falling, partial curve, poor fit]. The AC50 under setting [1] was 6.51 µM [falling, single point].
For `COc1ccccc1/C=C/C(=O)OCc1nc2ccccc2c(=O)[nH]1`, the cell number change is -50.2%.
Take `CCOc1ccc(NC(=O)NCCCn2c(C)nc3cc(C)c(C)cc32)cc1`: the cell number change came out at 112%. Besides, the AC50 under setting [2] is 2.31 µM [rising, full curve]. Moreover, the AC50 under setting [1] was 2.59 µM [rising, full curve].
